Among all 31,000 sequences or so, about 1,400 (4.5%) were called active.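 How the source made its calls: active means median seed-adjusted z-score above 1 or below -1; inactive means the rest.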 The list shows a part of the results.

For 68 sequences, median seed-adjusted z-score results are on record in PubChem BioAssay AID1347426 (Functional Genomics Laboratory (NCATS/FGL), 2020).

The experiment can be described thus: Novel Modifiers of Survival Motor Neuron (SMN) Protein: Gene Identification via Genome-wide siRNA Screen.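 Further: luminescence tracks full-length SMN protein made from the SMN2 reporter.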 The note with it: HEK293T SMN2-luciferase reporter, siRNA knockdown, 72 h; actives lie on both sides. The essentials: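 Each of three siRNAs per gene is reverse-transfected (1 pmol) into reporter HEK293T cells whose luciferase output tracks SMN protein level. After 72 h culture, ONE-Glo luminescence is control-normalized, log10-transformed and MAD-standardized; Common Seed Analysis deprioritizes seed-driven hits.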
Background: In a reporter assay the amount or activity of a reporter protein is the signal.
In the case of GAAUGAUGGUGAGAUACGATT against REPS2, the median seed-adjusted z-score is inactive: 0.454.

Consider GGGUGUCUAAAGGUACAUATT against FSD2, for which the median seed-adjusted z-score is inactive: 0.359. The figure for CAACCUGUGCAAGUACAGATT against KLK14 is inactive: -0.0998; for UGGUCAUUGUGAUCAGUUATT against GPR120 it is inactive: -0.578; for GGGAGAUCCUAGAACAAGATT against TAOK1 it is inactive: -0.0533. As for GCCUCACAGGUGCAUCAUATT against TSC2, the figure is active: 1.11. As for GACUAUCACUCCACGAAGATT against GAS6, the figure is inactive: -0.493. On to GCAUCGCGGGAAAACAAUATT against PPP2R2A, for which the median seed-adjusted z-score is inactive: -0.596.

With CCUUAAUGGUUGCCGGGUATT against PAPOLB, the median seed-adjusted z-score is inactive: 0.749. The figure for GCAUCUCUUUUUACGAUAATT against LRRN3 is inactive: 0; for UAAUCAAGCUGAAAACAGATT against TRYX3 it is active: 2.3. The figure for GCAGAAGGCUCAGUAGCUATT against NAT5 is inactive: -0.0124; for CAACCCAGGCUUUAGGCAGTT against DUSP15 it is inactive: 0. The figure for GGUUAUGCUACCAAACAAATT against DUXA is inactive: 0. CCUUAUGAAUGUCAGCAAUTT against ZNF763: the median seed-adjusted z-score was inactive: 0.236. For the sequence CCGUAGCUCUUAUCUAGCATT against KCNJ2, the median seed-adjusted z-score is inactive: -0.0834. As for GCUUACCUGCGGCGAAUUATT against ARHGEF2, the figure is inactive: 0.0929; as for ACUCUUCUGUGAAAUAGCATT against GLIS2, inactive: 0.206; as for GGAGACGGAUGGGAGUUUATT against ETS2, inactive: 0.636. The figure for GCACUCUCGUUAUACAUCATT against ZNF614 is inactive: 0.0971; for AGCUGACCCUGCUUAAAGATT against SLC25A22 it is inactive: -0.444. As for CGGCUCAACUCGCAUCUCATT against CAV2, the figure is inactive: -0.00895; as for ACCACGCAUUAAAACCAAATT against PRKCE, inactive: 0.568. Regarding UGACCGAACUGGACACUAATT against TADA3L, the median seed-adjusted z-score is inactive: 0.00625. As for GGCAUUUGCUUGUACCUAUTT against NEK3, the figure is inactive: 0.118; as for GAGUUCUGGGCAAAACUUATT against GADL1, inactive: 0; as for GGAUAAAUCUAUAAGCACATT against PLS1, inactive: -0.0715. With CUUUGACCAUGCUACGUCATT against P4HA3, the median seed-adjusted z-score was inactive: 0. The figure for CCAGUAGCUUUGCACCUGATT against PARK2 is inactive: 0.146; for GGUGAUGAGUGUUAAGGCATT against DTX4 it is inactive: 0.409. As for CAUCCGUACUUCAAACAAUTT against SERINC1, the figure is inactive: -0.255. As for GAACAGGAGAAACUCUUAATT against TRAF3IP3, the median seed-adjusted z-score is inactive: 0.0238. With GCACAAUUGACUUCCCUGATT against CALM2, the median seed-adjusted z-score is inactive: 0.127. As for CGCUAUUCGGGCUCCUAUATT against RBM14, the figure is inactive: -0.0317; as for GGCGAUAUGAUGAUCCUGATT against HSPA9, inactive: 0.622. The figure for CCAUAUUGGUAUCUCAAUUTT against PSMA1 is inactive: -0.145; for GAACGAGCAUUGAAUACAATT against DCC it is inactive: 0.303.

GGUUGUGCCUGGAUCUAAATT against TTK: the median seed-adjusted z-score was inactive: -0.658. Turning to GCAGCAAACCAGAUCCAGATT against ZBTB3, the median seed-adjusted z-score was inactive: -0.0419.

As to GUAUUCCUCAUACUAUAAATT against RNASE9, the median seed-adjusted z-score is inactive: 0.188.

For CCAGUGCUGUCAGUACGAUTT against LY6G5B, the median seed-adjusted z-score is active: -1.29. As for ACAACAUCAUUCAAGUGAATT against PRKAB1, the figure is inactive: 0.536. The figure for CAGUGGUGUCUAUCGAAGATT against ENO1 is inactive: 0.0766; for CUUCAGUGCUGAUCAGGUATT against NDUFA2 it is inactive: -0.694; for CCUAAUCAGUUUACCAUUUTT against TGIF2 it is inactive: -0.304. With GCAGCUGUAUCACUCCUUATT against TRIM27, the median seed-adjusted z-score is inactive: -0.378. As for GCACCGUCAUUGUCAAGAATT against CLCNKB, the figure is inactive: 0.428; as for GAGUGGAACUAAUUGAAAATT against TRIM61, inactive: 0.0116; as for GGCUUUUCAUGUCGGAAGATT against TNFRSF10D, inactive: 0.0234.

As to GUUCCAUCUGUAGUCCUAATT against TARBP2, the median seed-adjusted z-score was inactive: 0.068. On to CAAGGAUUGUGGAGUUAAATT against BDKRB1, for which the median seed-adjusted z-score is inactive: 0.448. The figure for GAAGGAAUUUGACUCAAUATT against NAPB is inactive: 0.716. The figure for CUACAAGACCGAGAAGUAUTT against P2RX5 is inactive: 0.313; for GCUCGUCUCCUAUCGAAAATT against DNMT3B it is inactive: 0.0761. The figure for GGAAAUGGGUUGUCCAUAUTT against CYSLTR2 is inactive: 0.0461; for CCCUUCUUUUGUACUAUUUTT against ZNF202 it is inactive: 0.534; for ACGCAUUCAUCGACAGGAATT against ATG4B it is inactive: -0.703.

Turning to GCCUUUCGAGAGACCAUUATT against GFM1, the median seed-adjusted z-score was inactive: -0.0641.

As to CGGUUGAAAUCGAACUGGATT against RAB41, the median seed-adjusted z-score was inactive: -0.534. The figure for GGUGCGAAAAGAUCUGCAATT against S100A9 is inactive: -0.0953; for GGUGAUUGGAUAUAAGAAATT against SLC12A1 it is inactive: -0.406; for GAGAAGAGCUUGGUCUAGATT against CYP4V2 it is inactive: 0. As for GAAAGACCUAUGACGCAUATT against IL1R1, the figure is inactive: 0.135; as for GCACUAGCAAAGUCCGAGATT against MET, inactive: 0.55; as for GGCGAAUACAGAUCACAAUTT against ARHGAP5, inactive: -0.359. As for AAACGAAUAUGCAAACCAUTT against NAT11, the figure is inactive: 0.37. Take GAUACGUACUAUGACCGAATT against TGM7: the median seed-adjusted z-score was inactive: 0.244. As for GGAUGCGUUGAAUAAGUUUTT against MGAT4A, the figure is inactive: 0.134.
